Record: PubChem BioAssay AID493246 (Drosophila RNAi Screening Center, 2011)

- Test: 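Genome-wide search for dsRNAs that reduce cell number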 (primary screen)
- Cells: Drosophila Kc and S2R+ cells
- Knock-down reagent: long dsRNA against Drosophila genes
- Measured: 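Raw, unnormalised count of remaining cells in each well; per-plate z-scores of cell number underlie the calls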
- Scale: Kc cell number and S2R+ cell number: higher = more cells remaining
- Active means: 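Active when the per-plate z-score of cell number is 3 or more in the direction of fewer cells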
In all, the deposit lists about 21,000 reagents; this is a random part of those with a known target gene and a result. In the full data, 429 (2%) were called active. 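Values are raw and not normalised between plates; calls rest on per-plate z-scores that were not deposited.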 Names joined by + are all predicted targets of the reagent. Not stated in the record: the amount of reagent, the time to read-out.

target	dsRNA	Kc cell number, rep 1	Kc cell number, rep 2	S2R+ cell number, rep 1	S2R+ cell number, rep 2	outcome
wun (GeneID 35966)	DRSC07719	1.37e6	1.42e6	1.03e6	1.09e6	inactive
CG32407 (GeneID 38667)	DRSC09789	1.67e6	1.59e6	1.12e6	1.29e6	inactive
CG31510 (GeneID 326146)	DRSC14182	1.42e6	1.49e6	9.01e5	1.01e6	inactive
Synj (GeneID 37517)	DRSC04526	1.28e6	1.41e6	1.13e6	1.05e6	inactive
eIF3f1 (GeneID 40587)	DRSC12328	1.31e6	1.38e6	9.49e5	1.07e6	inactive
CG33259 (GeneID 2768950)	DRSC10854	1.48e6	1.66e6	1.32e6	1.38e6	inactive
CG2100 (GeneID 40707)	DRSC12303	1.67e6	1.78e6	1.31e6	1.40e6	inactive
CG14427 (GeneID 31651)	DRSC17921	1.74e6	1.78e6	1.12e6	1.30e6	inactive
CG42676 (GeneID 2768999)	DRSC08227	1.34e6	1.41e6	1.17e6	1.19e6	inactive
CG42676 (GeneID 2768999)	DRSC08392	1.28e6	1.43e6	1.10e6	1.24e6	inactive
CG14797 (GeneID 31123)	DRSC17955	1.44e6	1.62e6	1.06e6	1.19e6	inactive
Rbp1-like (GeneID 32293)	DRSC19828	1.60e6	1.53e6	1.10e6	1.20e6	inactive
CG32086 (GeneID 326195)	DRSC10586	1.34e6	1.37e6	1.31e6	1.36e6	inactive
DIP-beta (GeneID 33125)	DRSC20461	1.36e6	1.45e6	1.14e6	1.11e6	inactive
DIP-beta (GeneID 33125)	DRSC20489	1.51e6	1.55e6	1.04e6	1.18e6	inactive
DIP-beta (GeneID 33125)	DRSC20490	1.49e6	1.48e6	1.02e6	1.14e6	inactive
DIP-beta (GeneID 33125)	DRSC20505	1.72e6	1.70e6	1.06e6	1.20e6	inactive
CG5966 (GeneID 31532)	DRSC18394	5.27e5		8.43e5		inactive
CG9300 (GeneID 40128)	DRSC11064	1.48e6	1.58e6	1.17e6	1.25e6	inactive
cdm (GeneID 42171)	DRSC16213	1.69e6	1.94e6	1.31e6	1.41e6	inactive
CG2162 (GeneID 38360)	DRSC08557	8.54e5	9.31e5	9.40e5	4.39e5	active
GstE9 (GeneID 246581)	DRSC06679	1.46e6	1.55e6	1.14e6	1.28e6	inactive
Thor (GeneID 33569)	DRSC00770	1.41e6	1.35e6	8.85e5	9.95e5	inactive
Oatp33Ea (GeneID 34660)	DRSC02859	1.25e6	1.30e6	8.70e5	9.24e5	inactive
zfh2 (GeneID 43795)	DRSC17178	5.34e5		7.50e5		inactive
CG1317 (GeneID 38300)	DRSC08305	1.44e6	1.50e6	1.23e6	1.28e6	inactive
Mst27D (GeneID 319019)	DRSC00967	1.74e6	1.74e6	1.22e6	1.46e6	inactive
CG13203 (GeneID 36229)	DRSC06327	1.47e6	1.50e6	1.25e6	1.38e6	inactive
CG7607 (GeneID 39263)	DRSC10889	1.36e6	1.42e6	1.33e6	1.34e6	inactive
Tsp42Ei (GeneID 35618)	DRSC06189	1.47e6	1.56e6	1.24e6	1.31e6	inactive
Pex3 (GeneID 39652)	DRSC10731	1.51e6	1.53e6	1.38e6	1.39e6	inactive
CG8407 (GeneID 36303)	DRSC07167	1.85e6	1.79e6	1.43e6	1.56e6	inactive
ssp6 (GeneID 38694)	DRSC08791	1.63e6	1.74e6	1.05e6	1.23e6	inactive
ssp6 (GeneID 38694)	DRSC10677	1.54e6	1.50e6	8.07e5	9.38e5	inactive
Dhc98D (GeneID 43379)	DRSC16645	1.49e6	1.55e6	1.02e6	1.13e6	inactive
MstProx + Mst84Da	DRSC12597	1.60e6	1.76e6	1.32e6	1.44e6	inactive

Next part, starting with the last 2 of the part before.
target	dsRNA	Kc cell number, rep 1	Kc cell number, rep 2	S2R+ cell number, rep 1	S2R+ cell number, rep 2	outcome
Dhc98D (GeneID 43379)	DRSC16645	1.49e6	1.55e6	1.02e6	1.13e6	inactive
MstProx + Mst84Da	DRSC12597	1.60e6	1.76e6	1.32e6	1.44e6	inactive
CG32237 (GeneID 38584)	DRSC08312	1.31e6	1.36e6	1.22e6	1.28e6	inactive
CG32237 (GeneID 38584)	DRSC08315	1.40e6	1.33e6	1.13e6	1.23e6	inactive
Cyp301a1 (GeneID 36378)	DRSC07365	1.53e6	1.55e6	1.32e6	1.39e6	inactive
His3.3B (GeneID 31848)	DRSC17773	1.61e6	1.56e6	1.02e6	1.16e6	inactive
His3.3B (GeneID 31848)	DRSC18673	1.44e6	1.28e6	7.70e5	8.18e5	inactive
PolI (GeneID 40965)	DRSC16267	1.54e6	1.61e6	1.31e6	1.39e6	inactive
Arc42 (GeneID 42364)	DRSC14340	1.23e6	1.45e6	1.08e6	1.11e6	inactive
Arc42 (GeneID 42364)	DRSC15627	1.27e6	1.43e6	1.06e6	1.08e6	inactive
DIP-kappa (GeneID 318958)	DRSC01336	1.44e6	1.47e6	8.95e5	1.04e6	inactive
DIP-kappa (GeneID 318958)	DRSC01337	1.60e6	1.64e6	1.10e6	1.28e6	inactive
CG32679 (GeneID 318150)	DRSC17644	1.14e6	1.45e6	1.12e6	1.15e6	inactive
CG30154 (GeneID 246487)	DRSC05889	5.25e5		7.60e5		inactive
stum (GeneID 37473)	DRSC04268	1.51e6	1.63e6	1.35e6	3.17e5	inactive
stum (GeneID 37473)	DRSC04270	1.58e6	1.73e6	1.42e6	3.91e5	inactive
Acbp6 (GeneID 38782)	DRSC10217	1.60e6	1.40e6	1.05e6	1.21e6	inactive
bgcn (GeneID 47873)	DRSC04062	1.61e6	1.69e6	1.32e6	1.40e6	inactive
bgcn (GeneID 47873)	DRSC04063	1.62e6	1.68e6	1.27e6	1.49e6	inactive
sw (GeneID 44160)	DRSC20388	1.19e6	1.38e6	1.04e6	1.14e6	inactive
CG7514 (GeneID 38571)	DRSC08597	1.48e6	1.33e6	1.19e6	1.23e6	inactive
Srp68 (GeneID 39028)	DRSC10475	1.48e6	1.53e6	1.21e6	1.17e6	inactive
CG15528 (GeneID 43575)	DRSC15065	1.58e6	1.63e6	1.09e6	1.20e6	inactive
alpha-Catr (GeneID 49713)	DRSC04669	1.63e6	1.67e6	1.31e6	1.49e6	inactive
ClC-c (GeneID 39759)	DRSC10499	1.51e6	1.59e6	1.31e6	1.38e6	inactive
mbo (GeneID 41562)	DRSC16123	1.47e6	1.54e6	1.26e6	1.36e6	inactive
Rif1 (GeneID 246445)	DRSC05593	1.65e6	1.59e6	1.02e6	1.24e6	inactive
Atg4b (GeneID 41868)	DRSC15988	1.84e6	1.98e6	1.62e6	1.84e6	inactive
Pde8 (GeneID 37741)	DRSC04503	1.48e6	1.50e6	1.12e6	1.17e6	inactive
glob1 (GeneID 41930)	DRSC16959	1.64e6	1.68e6	1.25e6	1.33e6	inactive
CG15711 (GeneID 36834)	DRSC06582	1.54e6	1.62e6	1.22e6	1.42e6	inactive
Ac78C (GeneID 40333)	DRSC11467	1.38e6	1.50e6	1.08e6	1.26e6	inactive
Ac78C (GeneID 40333)	DRSC11602	1.53e6	1.61e6	1.33e6	1.43e6	inactive
Ac78C (GeneID 40333)	DRSC11619	1.48e6	1.52e6	1.32e6	1.32e6	inactive
Rpt3R (GeneID 41190)	DRSC16501	1.50e6	1.47e6	1.08e6	1.17e6	inactive
kis (GeneID 33185)	DRSC00521	1.73e6	1.75e6	1.13e6	1.28e6	inactive
kis (GeneID 33185)	DRSC00625	1.80e6	1.78e6	1.03e6	1.14e6	inactive
kis (GeneID 33185)	DRSC00823	1.32e6	1.34e6	8.72e5	8.31e5	inactive
Alg9 (GeneID 43031)	DRSC14407	1.46e6	1.53e6	1.33e6	1.46e6	inactive
CG13926 (GeneID 38192)	DRSC08395	1.27e6	1.31e6	1.06e6	1.19e6	inactive
Sod1 (GeneID 39251)	DRSC11286	1.36e6	1.26e6	1.19e6	1.26e6	inactive
